At least one compound was matched to its structure with a doubt left.
Tested on: human dermal fibroblasts
Test: Fibroblasts proliferation after 10 days of culture (cells trypsinized and counted with a Coulter counter)
Assay type: cell-based
Settings: 2% FCS

CN(C)CCO [DMAE, dimethylaminoethanol] was tested, and the Mean of cell/ml (DMAE 10^-4 M alone) was 100 727 ± 1963 cell/ml and the Mean of cell/ml (DMAE 10^-5 M alone) was 88 013 ± 2733 cell/ml.
